Test results taken from PubChem BioAssay AID651817 (Broad Institute, 2012).
Inconclusive results, whose numbers are uncertain, are shown with a selection of clear calls. The source made the active and inactive calls.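 Rule for the calls: active = compound whose fitted luminescence drop, meaning cytotoxicity, reaches half effect at most twice its top valid tested dose; inconclusive = flat curve with a moderate drop, or an unreliable fit; inactive = rise instead of drop, flat response, or weaker potency.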

Assay: NIH/3T3 fibroblast cytotoxicity, dose response, cytotoxicity control for T. cruzi growth inhibitor project, cell-based, cherry-pick samples, set 2 (AID 651817)
Conditions: NIH/3T3 viability, ATP luminescence (CellTiter-Glo), 90 h; at 19.5 µM (top of the series)

Compound | activity change, negative = cytotoxicity
C[C@H]1CN([C@@H](C)CO)C(=O)c2cccc(NC(=O)c3ccncc3)c2O[C@H]1CN(C)Cc1ccccc1 | inconclusive: 12.8%
C[C@H](CO)N1C[C@H](C)[C@@H](CN(C)Cc2ccc(Cl)c(Cl)c2)Oc2c(NC(=O)c3ccncc3)cccc2C1=O | inactive: -21.9%
